In US6017399A, “Method for controlling and removing solid deposits from a surface of a component of a steam generating system” (priority 1998, dated 2000):
Like-named read-outs stand apart in the source and are kept apart here.

Key:
[1] = for aluminum anion concentration / aluminum cation concentration / aluminum total concentration: Day 22
[2] = during the demonstration of dimethylamine
[3] = words

CNC [Dimethylamine]
aluminum transport, feedwater and steam generator blowdown ([1]; after dimethylamine treatment, words): reduction of aluminum below detection limits
aluminum anion concentration ([1]; feedwater): 1.0 parts per billion
aluminum cation concentration ([1]; feedwater): 0.49 parts per billion
aluminum total concentration ([1]; feedwater): 1.49 parts per billion
aluminum anion concentration ([1]; steam generator blowdown): 1.44 parts per billion
aluminum cation concentration ([1]; steam generator blowdown): 0.92 parts per billion
aluminum total concentration ([1]; steam generator blowdown): 2.36 parts per billion
condensate polisher run time [2]: extended from thirty to sixty days
silica, boiler drum sample ([3]; FIG. 8): prompt reduction of electronegative silica
soluble calcium, boiler drum sample ([3]; FIG. 9): dramatically reduced
sodium and potassium elution, boiler drum sample ([3]; FIGS. 10 and 11): eluted by dimethylamine such that the soluble fraction was increased
